By UniProt entry, the sequences of proteins in these tests, tags left out. Where a name states a change or a piece, a line headed by the entry shows the natural chain unless it says otherwise.
UniProt Q96LW7: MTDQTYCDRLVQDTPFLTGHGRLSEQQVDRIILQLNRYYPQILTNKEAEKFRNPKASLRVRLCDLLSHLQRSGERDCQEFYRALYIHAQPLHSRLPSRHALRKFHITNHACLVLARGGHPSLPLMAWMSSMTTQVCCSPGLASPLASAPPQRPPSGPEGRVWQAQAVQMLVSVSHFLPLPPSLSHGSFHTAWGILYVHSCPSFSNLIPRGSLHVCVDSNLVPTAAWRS
UniProt P15682: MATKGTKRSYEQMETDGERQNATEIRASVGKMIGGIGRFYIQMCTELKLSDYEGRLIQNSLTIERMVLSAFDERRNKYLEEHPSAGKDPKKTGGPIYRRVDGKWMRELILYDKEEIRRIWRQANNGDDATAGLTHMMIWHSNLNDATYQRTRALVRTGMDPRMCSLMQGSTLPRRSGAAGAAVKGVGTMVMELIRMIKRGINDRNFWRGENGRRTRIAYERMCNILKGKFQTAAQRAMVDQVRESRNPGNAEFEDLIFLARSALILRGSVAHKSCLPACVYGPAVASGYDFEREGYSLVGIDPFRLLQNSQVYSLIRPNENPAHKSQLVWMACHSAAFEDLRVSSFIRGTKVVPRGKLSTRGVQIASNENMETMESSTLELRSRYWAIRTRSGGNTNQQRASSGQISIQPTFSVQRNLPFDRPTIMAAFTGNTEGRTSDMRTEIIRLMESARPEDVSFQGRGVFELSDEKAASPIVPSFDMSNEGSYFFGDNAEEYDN
UniProt Q14653: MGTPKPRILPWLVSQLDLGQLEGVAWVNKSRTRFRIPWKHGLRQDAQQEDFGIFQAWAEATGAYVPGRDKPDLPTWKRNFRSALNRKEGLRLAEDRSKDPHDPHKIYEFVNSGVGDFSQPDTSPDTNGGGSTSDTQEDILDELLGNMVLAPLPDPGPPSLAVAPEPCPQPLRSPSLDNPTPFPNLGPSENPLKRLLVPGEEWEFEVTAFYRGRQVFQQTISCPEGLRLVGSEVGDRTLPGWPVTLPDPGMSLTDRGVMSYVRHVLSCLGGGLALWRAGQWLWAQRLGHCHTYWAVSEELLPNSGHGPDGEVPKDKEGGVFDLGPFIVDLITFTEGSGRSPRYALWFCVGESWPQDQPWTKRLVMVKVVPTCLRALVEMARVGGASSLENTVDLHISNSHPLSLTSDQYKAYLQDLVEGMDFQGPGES
UniProt O95786: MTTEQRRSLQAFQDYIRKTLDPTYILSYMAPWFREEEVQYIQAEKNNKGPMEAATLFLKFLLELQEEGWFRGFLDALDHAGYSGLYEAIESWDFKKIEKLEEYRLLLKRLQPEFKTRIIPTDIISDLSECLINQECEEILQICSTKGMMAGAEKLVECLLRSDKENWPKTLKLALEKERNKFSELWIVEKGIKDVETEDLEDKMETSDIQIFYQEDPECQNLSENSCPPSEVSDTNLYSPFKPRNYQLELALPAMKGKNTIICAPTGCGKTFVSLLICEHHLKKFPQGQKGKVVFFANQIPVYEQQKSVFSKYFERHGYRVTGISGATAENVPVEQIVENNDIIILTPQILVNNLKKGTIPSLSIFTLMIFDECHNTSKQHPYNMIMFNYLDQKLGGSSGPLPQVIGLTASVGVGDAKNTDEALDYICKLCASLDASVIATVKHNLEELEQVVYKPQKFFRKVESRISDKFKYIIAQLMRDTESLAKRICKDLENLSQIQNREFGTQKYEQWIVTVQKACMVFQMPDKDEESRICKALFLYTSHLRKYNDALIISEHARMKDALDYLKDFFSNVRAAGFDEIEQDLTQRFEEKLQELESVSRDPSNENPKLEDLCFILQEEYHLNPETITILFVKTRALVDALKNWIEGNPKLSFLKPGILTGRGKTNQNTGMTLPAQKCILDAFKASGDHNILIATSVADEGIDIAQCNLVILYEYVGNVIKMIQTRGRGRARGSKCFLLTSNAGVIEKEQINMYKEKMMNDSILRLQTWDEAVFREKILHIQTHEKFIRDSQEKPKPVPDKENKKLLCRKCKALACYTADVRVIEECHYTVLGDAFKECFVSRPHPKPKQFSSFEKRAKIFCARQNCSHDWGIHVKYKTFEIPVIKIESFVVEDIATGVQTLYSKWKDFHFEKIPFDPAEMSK
UniProt Q7Z434: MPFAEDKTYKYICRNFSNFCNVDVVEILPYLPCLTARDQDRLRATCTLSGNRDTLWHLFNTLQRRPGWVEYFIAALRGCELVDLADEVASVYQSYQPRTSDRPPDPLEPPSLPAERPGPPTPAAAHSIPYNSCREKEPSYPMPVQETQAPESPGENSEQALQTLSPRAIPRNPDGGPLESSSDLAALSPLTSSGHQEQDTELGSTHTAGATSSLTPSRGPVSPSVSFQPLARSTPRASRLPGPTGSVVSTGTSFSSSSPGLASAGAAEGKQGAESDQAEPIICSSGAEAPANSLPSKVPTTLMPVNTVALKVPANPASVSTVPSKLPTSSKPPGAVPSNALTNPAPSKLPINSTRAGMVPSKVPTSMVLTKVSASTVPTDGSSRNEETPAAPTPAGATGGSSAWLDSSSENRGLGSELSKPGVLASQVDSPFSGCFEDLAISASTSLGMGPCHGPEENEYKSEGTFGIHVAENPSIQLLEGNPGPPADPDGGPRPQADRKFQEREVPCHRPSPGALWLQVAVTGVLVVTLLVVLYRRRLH
UniProt Q13114: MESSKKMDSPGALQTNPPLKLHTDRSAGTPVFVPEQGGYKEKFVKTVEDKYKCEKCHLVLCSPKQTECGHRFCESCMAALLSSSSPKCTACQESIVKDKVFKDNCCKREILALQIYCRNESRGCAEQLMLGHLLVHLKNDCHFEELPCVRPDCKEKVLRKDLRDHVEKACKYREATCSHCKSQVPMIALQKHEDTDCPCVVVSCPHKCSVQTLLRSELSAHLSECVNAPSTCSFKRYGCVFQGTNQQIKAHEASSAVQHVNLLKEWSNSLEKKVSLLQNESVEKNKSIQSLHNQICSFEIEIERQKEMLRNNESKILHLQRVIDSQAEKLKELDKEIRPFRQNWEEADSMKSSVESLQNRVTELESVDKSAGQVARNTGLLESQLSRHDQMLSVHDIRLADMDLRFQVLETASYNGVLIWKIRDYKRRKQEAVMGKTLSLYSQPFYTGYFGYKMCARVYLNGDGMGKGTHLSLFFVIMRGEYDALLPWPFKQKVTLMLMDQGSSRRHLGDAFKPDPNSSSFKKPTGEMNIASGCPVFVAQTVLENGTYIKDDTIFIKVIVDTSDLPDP

According to paper PMC9508095:

Legend:
[1] = biological target: Flag-tagged BinCARD1 (human) (UniProt Q96LW7); assay: co-IP
[2] = biological target: Myc-tagged BinCARD1 (human) (UniProt Q96LW7); assay: co-IP; HEK293T co-transfected with the indicated plasmids, lysed 36 h p.t. in IP lysis buffer (Pierce), primary antibody then Protein G-Agarose at 4 °C, western blot; in some panels a third protein (BinCARD1 or TRAF3) was coexpressed
BinCARD1 (human) = BinCARD1 (human) (UniProt Q96LW7); assay: co-IP

Substance | binding [1] | binding [2] | binding (BinCARD1 (human))
NP of WSN (H1N1) virus in infected cells (from UniProt P15682 1-498) | binds | – | –
Flag-tagged IRF3 (from UniProt Q14653 1-427) | – | no binding | –
Flag-tagged RIG-I (from UniProt O95786 1-925) | – | no binding | –
Flag-tagged MAVS (from UniProt Q7Z434 1-540) | – | no binding | –
V5-tagged WSNNP (from UniProt P15682 1-498) | binds | – | binds
endogenous IMP α7 (from UniProt O60684 1-536) | binds | – | –
Flag-tagged TRAF3 (from UniProt Q13114 1-568) | – | binds | –

These are yes or no findings as the source states them, for the method shown. In cells and extracts the contact can be indirect. A result given as binding can be weak or reduced; the word gives no strength.
